Our source for the binding values is doi:10.1101/2021.02.26.433017.

These are yes or no findings as the source states them, for the method shown. Binding seen in cells or lysates may run through a third protein. Some results given as binding are weak or reduced against the parent protein; the word gives no strength. Where a sequence is shown, tags or fusion partners need not be part of it.

The experiment deals with T1, LIKE HETEROCHROMATIN PROTEIN 1 (LHP1) fused to NYFP (Arabidopsis thaliana) (UniProt Q946J8).
T1 sequence: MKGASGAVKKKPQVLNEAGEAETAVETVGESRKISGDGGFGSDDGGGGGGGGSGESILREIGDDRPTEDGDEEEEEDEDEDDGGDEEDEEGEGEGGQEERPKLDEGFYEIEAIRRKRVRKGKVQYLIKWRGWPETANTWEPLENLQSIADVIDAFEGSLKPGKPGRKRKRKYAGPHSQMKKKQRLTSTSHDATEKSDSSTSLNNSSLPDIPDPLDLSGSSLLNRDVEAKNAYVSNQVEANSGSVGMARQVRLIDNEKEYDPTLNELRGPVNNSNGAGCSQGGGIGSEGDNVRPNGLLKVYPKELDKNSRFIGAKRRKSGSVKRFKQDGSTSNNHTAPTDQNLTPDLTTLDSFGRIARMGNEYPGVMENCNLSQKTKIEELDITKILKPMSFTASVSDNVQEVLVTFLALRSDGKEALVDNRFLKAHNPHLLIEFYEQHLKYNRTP
Put plainly: split reporter.

B1: VARIANT IN …ON 1 (VIM1) fused to CYFP (protein, UniProt Q8VYZ0 1-645)
chain: MARDIQLPCDGDGVCMRCKSNPPPEESLTCGTCVTPWHVSCLSSPPKTLASTLQWHCPDCSGEIDPLPVSGGATGFESAGSDLVAAIRAIEADESLSTEEKAKMRQRLLSGKGVEEDDEEEKRKKKGKGKNPNLDVLSALGDNLMCSFCMQLPERPVTKPCGHNACLKCFEKWMGQGKRTCGKCRSIIPEKMAKNPRINSSLVAAIRLAKVSKSAAATTSKVFHFISNQDRPDKAFTTERAKKTGKANAASGKIYVTIPPDHFGPIPAENDPVRNQGLLVGESWEDRLECRQWGAHFPHVAGIAGQSTYGAQSVALSGGYKDDEDHGEWFLYTGSGGRDLSGNKRTNKEQSFDQKFEKSNAALKLSCKLGYPVRVVRSHKEKRSAYAPEEGVRYDGVYRIEKCWRKVGVQGSFKVCRYLFVRCDNEPAPWTSDENGDRPRPIPNIPELNMATDLFERKETPSWDFDEGEGCWKWMKPPPASKKSVNVLAPEERKNLRKAIKAAHSNTMRARLLKEFKCQICQQVLTLPVTTPCAHNFCKACLEAKFAGKTLVRERSTGGRTLRSRKNVLNCPCCPTDISDFLQNPQVNREVAEVIEKLKTQEEDTAELEDEDEGECSGTTPEEDSEQPKKRIKLDTDATVSATIR
In the case of B1, the binding entry is “binds”.
